Measured values published in PubChem BioAssay AID1487 (National Center for Advancing Translational Sciences (NCATS), 2009).
Some of the results follow. These are further read-outs of the screen, such as a control signal, another cell line or another target. No call is given for them. The list favours compounds with an active or inconclusive main result. Potencies come from curve fits of mixed quality, noted in brackets.

Experiment: qHTS Assay for Modulators of Lamin A Splicing
Details: HeLa LMNA splicing GFP/RFP minigene ratio, 48 h
In short: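 Read-out is the ratio of GFP to DsRed2 object intensity, acquired by 488 nm laser-scanning cytometry on HeLa lamin A-EGFP minigene reporter cells. Compound incubation 48 hrs at 37 °C in Opti-MEM with 2% FBS; DMSO 0.5% final.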

[1] = measured here: GFP splicing reporter channel
[2] = measured here: RFP viability control channel

Structure (SMILES) | AC50 [1] | AC50 [2]
CC(C)(C)OC(=O)N1CCC[C@H]1c1nnc(SCc2c(F)cccc2Cl)o1 | 12.6 µM [rising, single point] | 11.2 µM [rising, single point]
Cc1ccc(NS(=O)(=O)c2cc(NC(=O)c3cc4c(s3)CCCC4)ccc2C)c(C)c1 |  | 22.4 µM [rising, partial curve, poor fit]
O=C(CS(=O)c1ccc(C(F)(F)F)cc1[N+](=O)[O-])Oc1ccc(Cl)cc1 (configuration not stated) | 35.5 µM [falling, single point] | 35.5 µM [falling, single point]
CC1Cc2ccccc2N1C(=O)CSc1nc2c(c(=O)n(C)c(=O)n2C)n1Cc1ccccc1 (configuration not stated) |  | 20 µM [rising, single point]
O=C(NCCS(=O)(=O)N1CCN(c2ccc(F)cc2)CC1)c1cccc(C(F)(F)F)c1 | 0.891 µM [falling, full curve, poor fit] | 
Cc1cc(C)n(/N=C/c2cc(Cl)cc(Cl)c2O)c(=O)c1 | 22.4 µM [falling, single point] | 
Cc1cc(C)n2nc(/C(C#N)=C/c3ccccn3)c(C#N)c2n1 | 25.1 µM [falling, single point] | 
O=C(NCC1CCCO1)c1sc(=S)n2c1[nH]c(=O)c1ccc(C(=O)N3CCCCC3)cc12 (configuration not stated) | 6.31 µM [rising, partial curve, poor fit] | 1.58 µM [rising, full curve]
O=C(c1ccccc1)N1CCN(C(=S)NCc2ccc3c(c2)OCO3)CC1 |  | 0.00794 µM [rising, full curve, poor fit]
COC(=O)c1c(-c2ccc(Br)cc2)csc1NC(=O)Cc1ccc(OC)c(OC)c1 | 14.1 µM [rising, partial curve] | 11.2 µM [rising, partial curve]
Cc1ccc(N2C(=O)c3cccc4c(Oc5ccccc5[N+](=O)[O-])ccc(c34)C2=O)c(C)c1 | 3.55 µM [rising, full curve] | 7.08 µM [rising, full curve]
c1ccc(CN(CC2=NCCN2)c2ccccc2)cc1 | 0.126 µM [falling, full curve, poor fit] | 0.00251 µM [falling, full curve, poor fit]
O=C(NCc1cccnc1)c1ccc(COc2ccccc2Br)o1 |  | 35.5 µM [rising, single point]
COc1ccc(-n2c(SCC(=O)Nc3cccc(C)c3C)nc3c([nH]c4ccccc43)c2=O)cc1 |  | 7.94 µM [falling, partial curve]
Cc1ccc(C(=O)Nc2cccc(Oc3ccccc3)c2)o1 |  | 35.5 µM [rising, single point]
C=CCN(C(=O)c1cccc(S(=O)(=O)N2CCN(C)CC2)c1)c1nc(-c2ccccc2)cs1 |  | 12.6 µM [rising, partial curve]
O=S(=O)(Nc1cc(F)ccc1F)c1ccc2[nH]c3c(c2c1)CCCCC3 | 28.2 µM [falling, single point] | 25.1 µM [falling, single point]

Structure (SMILES) | AC50 [1] | AC50 [2]
FC(F)(F)c1ccc2c(c1)[nH]c(=S)n2C1CC1 | 0.01 µM [rising, full curve, poor fit] | 
O=C(Nc1cccnc1)c1cc(-c2ccc(F)cc2)on1 | 2.24 µM [rising, partial curve] | 
Fc1ccc(Nc2nc(SCc3ccccc3F)nc3ccccc23)cc1 | 11.2 µM [falling, partial curve] | 12.6 µM [falling, partial curve, poor fit]
C/C(Cl)=C/Cn1c(=O)c2c(nc(Br)n2Cc2ccccc2)n(C)c1=O |  | 0.0316 µM [rising, full curve, poor fit]
Cc1nc2cc(C(=O)NC3CCCCCC3)ccc2n1-c1ccc(Br)cc1 | 0.0158 µM [falling, full curve, poor fit] | 
COc1ccc(C(=O)C2CCCN(C(=O)CCC3=NNC(=O)CC3)C2)c(C)c1 (configuration not stated) |  | 0.00316 µM [falling, full curve, poor fit]
Cc1ccc([N+](=O)[O-])c(C)[n+]1C |  | 0.158 µM [rising, partial curve, poor fit]
Cc1ccc(C)c(N2CCN(C(=O)CSc3ccsc3[N+](=O)[O-])CC2)c1 |  | 11.2 µM [rising, partial curve, poor fit]
C=C1CCC(O)C/C1=C/C=C1\CCC[C@]2(C)[C@@H]([C@H](C)/C=C/[C@H](C)C(C)C)CC[C@@H]12 (some centres not stated) | 12.6 µM [rising, partial curve, poor fit] | 0.0316 µM [rising, full curve, poor fit]
CCN(C(=O)c1ccc(C(C)(C)C)cc1)c1nnc(Cn2nnc3ccccc32)s1 | 0.158 µM [rising, full curve] | 0.708 µM [rising, full curve]
C=CCOc1ccc(C2C(C#N)=C(N)N(Nc3ccccc3)C3=C2C(=O)CC(C)(C)C3)cc1OC (configuration not stated) | 35.5 µM [falling, single point] | 28.2 µM [falling, single point]
CSc1ccccc1C(=O)NCc1ccccc1C | 0.126 µM [falling, full curve, poor fit] | 0.0891 µM [falling, full curve, poor fit]
COc1ccc(C(=O)/C(=C\c2sccc2C)c2nc3ccccc3o2)cc1 | 35.5 µM [rising, single point] | 35.5 µM [rising, single point]
CCOc1cc(CNc2ccc(N3CCCC3)cc2)cc(Cl)c1OC | 31.6 µM [rising, single point] | 31.6 µM [rising, single point]
COc1ccc(NC(=O)Nc2nccs2)cc1 |  | 2.82 µM [rising, partial curve]
CS(=O)(=O)c1ccc(C(=O)OCC(=O)NC23CC4CC(CC(C4)C2)C3)cc1[N+](=O)[O-] |  | 31.6 µM [rising, single point]
